## Assay results

Data taken from PubChem BioAssay AID504749, deposited by NCATS (2011).

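Malaria parasite (P. falciparum) lines kept in red blood cells; parasite DNA is measured by SYBR Green fluorescence after lysis, 72 h after compound addition.
Each compound was titrated across a series from about 0.000037 to 29 µM.
The number is the fitted AC50, the concentration giving a half-maximal change in signal; a lower value means higher potency, whether the curve shows a decrease or an increase.
Calls follow the curve class and fit quality: every row here is inconclusive, covering signal-raising curves and weak, poorly fitted, partial or highest-dose-only inhibition curves.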

Values are in µM.
Every entry below has the call inconclusive.
These entries are mostly ones the record files as inconclusive; other results of the assay are not listed here.
Potencies fitted to partial, single-point or poorly fitting curves are rough.

Result for Cc1cc(-c2ccc(N=Nc3c(S(=O)(=O)O)cc4cc(S(=O)(=O)O)cc(N)c4c3O)c(C)c2)ccc1N=Nc1c(S(=O)(=O)O)cc2cc(S(=O)(=O)O)cc(N)c2c1O [ATS189] was potency 11.22 µM (inhibitor, single point). For Cc1cc(-c2ccc(N=Nc3c(S(=O)(=O)O)cc4cc(S(=O)(=O)O)cc(N)c4c3O)c(C)c2)ccc1N=Nc1c(S(=O)(=O)O)cc2cc(S(=O)(=O)O)cc(N)c2c1O [CP217] the result was potency 10 µM (inhibitor, single point). Result for Cc1cc(-c2ccc(N=Nc3c(S(=O)(=O)O)cc4cc(S(=O)(=O)O)cc(N)c4c3O)c(C)c2)ccc1N=Nc1c(S(=O)(=O)O)cc2cc(S(=O)(=O)O)cc(N)c2c1O [TAB109] was potency 11.22 µM (inhibitor, single point). Cc1cc(-c2ccc(N=Nc3c(S(=O)(=O)O)cc4cc(S(=O)(=O)O)cc(N)c4c3O)c(C)c2)ccc1N=Nc1c(S(=O)(=O)O)cc2cc(S(=O)(=O)O)cc(N)c2c1O [N140] read potency 17.78 µM (inhibitor, single point). Cc1cc(-c2ccc(N=Nc3c(S(=O)(=O)O)cc4cc(S(=O)(=O)O)cc(N)c4c3O)c(C)c2)ccc1N=Nc1c(S(=O)(=O)O)cc2cc(S(=O)(=O)O)cc(N)c2c1O [CP247] gave potency 7.943 µM (inhibitor, single point). Result for CC1=C[C@@H](O)CC(C)(C)[C@@H]1/C=C/C(C)=C/C=C/C(C)=C/C=C/C=C(C)/C=C/C=C(C)/C=C/C1=C(C)C[C@H](O)CC1(C)C [CP237] was potency 12.59 µM (inhibitor, single point).

CC1=C[C@@H](O)CC(C)(C)[C@@H]1/C=C/C(C)=C/C=C/C(C)=C/C=C/C=C(C)/C=C/C=C(C)/C=C/C1=C(C)C[C@H](O)CC1(C)C [CP247] read potency 11.22 µM (inhibitor, partial curve). With CC1=C[C@@H](O)CC(C)(C)[C@@H]1/C=C/C(C)=C/C=C/C(C)=C/C=C/C=C(C)/C=C/C=C(C)/C=C/C1=C(C)C[C@H](O)CC1(C)C [GB4] the assay gave potency 15.1 µM (inhibitor, partial curve). Result for CC1=C[C@@H](O)CC(C)(C)[C@@H]1/C=C/C(C)=C/C=C/C(C)=C/C=C/C=C(C)/C=C/C=C(C)/C=C/C1=C(C)C[C@H](O)CC1(C)C [CP215] was potency 13.46 µM (inhibitor, partial curve, poor fit). Result for CC1=C[C@@H](O)CC(C)(C)[C@@H]1/C=C/C(C)=C/C=C/C(C)=C/C=C/C=C(C)/C=C/C=C(C)/C=C/C1=C(C)C[C@H](O)CC1(C)C [ATS95] was potency 17.78 µM (inhibitor, single point). Result for CC1=C[C@@H](O)CC(C)(C)[C@@H]1/C=C/C(C)=C/C=C/C(C)=C/C=C/C=C(C)/C=C/C=C(C)/C=C/C1=C(C)C[C@H](O)CC1(C)C [P94_40] was potency 19.95 µM (inhibitor, single point). For CC1=C[C@@H](O)CC(C)(C)[C@@H]1/C=C/C(C)=C/C=C/C(C)=C/C=C/C=C(C)/C=C/C=C(C)/C=C/C1=C(C)C[C@H](O)CC1(C)C [ECU] the result was potency 17.78 µM (inhibitor, single point).

CC1=C[C@@H](O)CC(C)(C)[C@@H]1/C=C/C(C)=C/C=C/C(C)=C/C=C/C=C(C)/C=C/C=C(C)/C=C/C1=C(C)C[C@H](O)CC1(C)C [SC27B] read potency 14.13 µM (inhibitor, single point). For CC1=C[C@@H](O)CC(C)(C)[C@@H]1/C=C/C(C)=C/C=C/C(C)=C/C=C/C=C(C)/C=C/C=C(C)/C=C/C1=C(C)C[C@H](O)CC1(C)C [PAD] the result was potency 12.59 µM (inhibitor, single point). CC1=C[C@@H](O)CC(C)(C)[C@@H]1/C=C/C(C)=C/C=C/C(C)=C/C=C/C=C(C)/C=C/C=C(C)/C=C/C1=C(C)C[C@H](O)CC1(C)C [AS120] gave potency 15.85 µM (inhibitor, single point). For CC1=C[C@@H](O)CC(C)(C)[C@@H]1/C=C/C(C)=C/C=C/C(C)=C/C=C/C=C(C)/C=C/C=C(C)/C=C/C1=C(C)C[C@H](O)CC1(C)C [DIV17] the result was potency 16.94 µM (inhibitor, single point). With CC1=C[C@@H](O)CC(C)(C)[C@@H]1/C=C/C(C)=C/C=C/C(C)=C/C=C/C=C(C)/C=C/C=C(C)/C=C/C1=C(C)C[C@H](O)CC1(C)C [CP335] the assay gave potency 13.46 µM (inhibitor, single point). CC1=C[C@@H](O)CC(C)(C)[C@@H]1/C=C/C(C)=C/C=C/C(C)=C/C=C/C=C(C)/C=C/C=C(C)/C=C/C1=C(C)C[C@H](O)CC1(C)C [CP217] gave potency 11.22 µM (inhibitor, single point).

With CC1=C[C@@H](O)CC(C)(C)[C@@H]1/C=C/C(C)=C/C=C/C(C)=C/C=C/C=C(C)/C=C/C=C(C)/C=C/C1=C(C)C[C@H](O)CC1(C)C [CP260] the assay gave potency 10 µM (inhibitor, single point).

The first 2 entries again:

SMILES	setting	potency (µM)	curve as filed
Cc1cc(-c2ccc(N=Nc3c(S(=O)(=O)O)cc4cc(S(=O)(=O)O)cc(N)c4c3O)c(C)c2)ccc1N=Nc1c(S(=O)(=O)O)cc2cc(S(=O)(=O)O)cc(N)c2c1O	ATS189	11.22	inhibitor, single point
Cc1cc(-c2ccc(N=Nc3c(S(=O)(=O)O)cc4cc(S(=O)(=O)O)cc(N)c4c3O)c(C)c2)ccc1N=Nc1c(S(=O)(=O)O)cc2cc(S(=O)(=O)O)cc(N)c2c1O	CP217	10	inhibitor, single point